This is one part of the list. The data scatter; read single values as rough.
Experiments:
[1] = compound: ClCC(=O)N[C@@H]1CCCc2ccccc12; assay: log2 mean competition ratio of IA-DTB cysteine labelling (DMSO/compound) (log2 ratio); higher = stronger cysteine engagement by compound; details: treatment time: 4 h, cell line lysate: HEK293T
Procedure: (§1)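 IA-DTB competitive cysteine chemoproteomics in HEK293T RIPA lysate. Lysates were treated with compound 29 or 30 at 50 or 200 µM for 4 h, then IA-DTB (500 µM, 1 h), trypsin-digested, NeutrAvidin-enriched and analysed by diaPASEF. Competition ratio = intensity DMSO / intensity compound (n=4 treated, n=64 DMSO); binding: mean log2 CR ≥ 1 and p ≤ 0.05 plus QC filters. Target is the cysteine site.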

Amino acid sequences for entries named in this document (tags omitted). A change or cut given only in a name is not applied to a line headed by its entry.
UniProt O75503: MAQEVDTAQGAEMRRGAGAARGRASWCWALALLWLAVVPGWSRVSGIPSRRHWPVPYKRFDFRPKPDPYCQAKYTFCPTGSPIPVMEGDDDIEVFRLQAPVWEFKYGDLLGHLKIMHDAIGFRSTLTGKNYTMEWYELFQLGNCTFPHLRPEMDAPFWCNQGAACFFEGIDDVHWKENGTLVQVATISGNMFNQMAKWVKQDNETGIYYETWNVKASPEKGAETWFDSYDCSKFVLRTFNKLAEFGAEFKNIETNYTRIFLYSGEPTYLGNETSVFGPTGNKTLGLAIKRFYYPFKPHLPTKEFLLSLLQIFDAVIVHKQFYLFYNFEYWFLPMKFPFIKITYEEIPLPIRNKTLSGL
UniProt Q86VU5: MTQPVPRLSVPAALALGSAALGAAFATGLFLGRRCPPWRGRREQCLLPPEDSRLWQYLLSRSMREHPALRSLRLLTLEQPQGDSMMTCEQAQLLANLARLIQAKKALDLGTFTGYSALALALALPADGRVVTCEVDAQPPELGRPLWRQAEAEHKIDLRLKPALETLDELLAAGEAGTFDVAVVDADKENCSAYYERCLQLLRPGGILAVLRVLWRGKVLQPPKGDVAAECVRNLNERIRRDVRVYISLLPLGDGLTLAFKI
UniProt Q9NPF2: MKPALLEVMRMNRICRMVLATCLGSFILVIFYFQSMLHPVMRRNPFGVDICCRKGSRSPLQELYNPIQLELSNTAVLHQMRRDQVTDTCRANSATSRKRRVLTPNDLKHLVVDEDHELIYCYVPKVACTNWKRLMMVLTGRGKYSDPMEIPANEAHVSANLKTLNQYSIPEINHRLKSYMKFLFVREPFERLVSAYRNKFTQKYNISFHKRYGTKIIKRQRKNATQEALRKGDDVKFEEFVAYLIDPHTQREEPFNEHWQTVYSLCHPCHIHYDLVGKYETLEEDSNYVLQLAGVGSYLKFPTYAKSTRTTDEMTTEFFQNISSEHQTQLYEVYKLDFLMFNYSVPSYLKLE
UniProt O96017, whole entry, looked up: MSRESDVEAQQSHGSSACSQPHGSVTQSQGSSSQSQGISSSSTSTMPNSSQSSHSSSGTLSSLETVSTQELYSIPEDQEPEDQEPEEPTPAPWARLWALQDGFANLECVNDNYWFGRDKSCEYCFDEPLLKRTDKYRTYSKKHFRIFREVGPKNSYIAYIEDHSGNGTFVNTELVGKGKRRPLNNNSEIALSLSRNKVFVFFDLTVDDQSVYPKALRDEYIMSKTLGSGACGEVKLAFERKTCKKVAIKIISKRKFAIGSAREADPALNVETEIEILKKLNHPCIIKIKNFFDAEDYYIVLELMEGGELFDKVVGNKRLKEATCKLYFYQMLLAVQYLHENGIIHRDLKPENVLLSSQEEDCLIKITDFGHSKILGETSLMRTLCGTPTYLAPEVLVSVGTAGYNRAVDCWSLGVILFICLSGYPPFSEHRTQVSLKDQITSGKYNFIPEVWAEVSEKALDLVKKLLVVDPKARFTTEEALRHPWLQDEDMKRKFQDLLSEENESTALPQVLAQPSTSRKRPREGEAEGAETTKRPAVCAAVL

[2] = compound: ClCC(=O)N[C@H]1CCCc2ccccc12; assay: as above; details: treatment time: 4 h, cell line lysate: HEK293T
Procedure: as §1

| Target | log2 mean competition ratio ([1]; 50 µM) | log2 mean competition ratio ([1]; 200 µM) | log2 mean competition ratio ([2]; 50 µM) | log2 mean competition ratio ([2]; 200 µM) |
| --- | --- | --- | --- | --- |
| CLN5 C231 (UniProt O75503) | 1.06 | 3.83 | -0.0359 | 0.135 |
| COMTD1 C45 (UniProt Q86VU5) | 0.411 | 0.266 | 0.614 | 0.274 |
| CHST11 C128 (UniProt Q9NPF2) | 0.404 | 0.679 | 0.259 | 0.349 |
| CHEK2 C284 (UniProt O96017) | -0.0266 | -0.242 | -0.0294 | -0.311 |
| CLUH C7 | -0.186 | -0.0394 | -0.448 | 0.178 |
